{
  "sequences": {"note": "By UniProt entry, the sequences of proteins in these tests, tags left out. Where a name states a change or a piece, a line headed by the entry shows the natural chain unless it says otherwise. Residues count along the entry.", "UniProt P18627, 23-450": "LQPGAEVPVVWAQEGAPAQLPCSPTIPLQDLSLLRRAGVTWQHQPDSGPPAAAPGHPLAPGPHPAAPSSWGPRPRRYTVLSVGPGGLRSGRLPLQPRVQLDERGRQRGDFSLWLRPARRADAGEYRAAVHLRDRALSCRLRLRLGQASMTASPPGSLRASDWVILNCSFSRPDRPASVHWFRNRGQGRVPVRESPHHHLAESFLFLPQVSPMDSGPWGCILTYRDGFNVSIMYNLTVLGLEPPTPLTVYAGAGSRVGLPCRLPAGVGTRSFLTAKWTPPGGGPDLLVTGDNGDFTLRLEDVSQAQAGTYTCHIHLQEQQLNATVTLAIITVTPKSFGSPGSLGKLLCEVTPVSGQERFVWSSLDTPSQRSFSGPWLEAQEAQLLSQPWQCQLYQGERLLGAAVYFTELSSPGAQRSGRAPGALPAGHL", "UniProt P18627, 23-525": "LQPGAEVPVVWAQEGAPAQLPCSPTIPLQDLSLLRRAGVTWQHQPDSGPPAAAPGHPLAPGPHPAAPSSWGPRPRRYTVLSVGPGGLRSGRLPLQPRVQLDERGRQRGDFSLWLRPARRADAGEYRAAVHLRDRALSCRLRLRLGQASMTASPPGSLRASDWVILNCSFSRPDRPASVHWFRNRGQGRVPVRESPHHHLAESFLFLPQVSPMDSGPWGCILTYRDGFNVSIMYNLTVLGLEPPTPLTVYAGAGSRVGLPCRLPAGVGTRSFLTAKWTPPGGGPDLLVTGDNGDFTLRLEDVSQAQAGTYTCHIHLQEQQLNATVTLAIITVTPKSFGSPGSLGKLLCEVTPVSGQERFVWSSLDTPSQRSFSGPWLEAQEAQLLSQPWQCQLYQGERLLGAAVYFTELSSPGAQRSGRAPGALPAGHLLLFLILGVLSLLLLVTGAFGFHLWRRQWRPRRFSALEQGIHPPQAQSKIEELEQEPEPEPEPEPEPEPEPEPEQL"},
  "source": "patent US20210115447",
  "about": "“NUCLEIC ACID APTAMERS TARGETING LYMPHOCYTE ACTIVATION GENE 3 (LAG-3) AND USES THEREOF” (Oneness Biotech Co., Ltd., published 2021)",
  "key": {"[1]": {"molecular_target": "LAG-3 (lymphocyte activation gene 3) (Homo sapiens) (UniProt P18627)", "assay": "pull-down", "settings": "text says minimal to no binding (FIG. 1E), purified recombinant protein, label: 5'-biotin, single-stranded DNA, variant of 5'Bio-B4"}, "[2]": {"molecular_target": "LAG-3 (in LAG-3/MHC-II luciferase reporter bioassay) (UniProt P18627)", "assay": "activity in cells", "settings": "disrupts LAG-3/MHC-II interaction, protein on the cell surface, single-stranded DNA, dose not given here"}},
  "note": "For part of these data: The exact form of at least one protein or probe is not confirmed.",
  "data": [
    {"sequence": "GGGGGTTAGTTCAATACATGCGGGCGGCCACCGTG [5'Bio-B4-SL5]", "values": [
      {"measurement": "Kd", "setting": "[1]; part of conserved motif deleted", "value": 0.0914, "unit": "µM"}
    ]},
    {"sequence": "TCCCTACGGCGCTAACAGAGGGGGGGGTTAGCTGCTTTAACTCATGGCCACCGTGCTACAAC [D9]", "values": [
      {"measurement": "functional effect of the aptamer", "setting": "[2]", "value": "active"}
    ]},
    {"sequence": "TCCCTACGGCGCTAACAGGGGGGGGGTTACTGCGCATGTATCTCAGGCCACCGTGCTACAAC [F4]", "values": [
      {"measurement": "functional effect of the aptamer", "setting": "[2]", "value": "active"}
    ]},
    {"sequence": "TCCCTACGGCGCTAACTGGGGGGGGGTTAGACTTACACTCTTATTCGGCCACCGTGCTACAAC [B8]", "values": [
      {"measurement": "functional effect of the aptamer", "setting": "[2]", "value": "active"}
    ]},
    {"sequence": "TCCCTACGGCGCTAACTGGGGGGGGTTAGTTCAATACATGCGGGCGGCCACCGTGCTACAAC [B4]", "values": [
      {"measurement": "functional effect of the aptamer", "setting": "[2]", "value": "active"}
    ]},
    {"sequence": "TTAGTTCAATACATGCGGGCGGCCACCGTGCTACA [5'Bio-B4-SL6]", "values": [
      {"measurement": "Kd", "setting": "[1]; most of conserved motif deleted", "value": 0.124, "unit": "µM"}
    ]}
  ]
}
